Laboratory results from PubChem BioAssay AID1671190 (National Center for Advancing Translational Sciences (NCATS), 2021).
Several values for one entry are separate records, joined by “and”; a condition that tells them apart may be missing. Equal entries are not always repeated. The whole screen tested about 580,000 compounds, of which about 6,100 (1.1%) were called active. Inconclusive results, whose numbers are uncertain, are shown with a selection of clear calls. Calls come from the whole dose curve; as a rule, active = well fitted inhibition curve with a large enough effect; inconclusive = small, poorly fitted or top-dose-only effect, or another doubt; inactive = no such curve, though single readings can be large or run the other way. Where the call is inconclusive, the potency comes from a doubtful curve fit.

Chains of the proteins cited; added tags and fusions are not shown. Lines headed by an entry give the natural chain unless they say otherwise; changes in a name come on top.
UniProt P18054: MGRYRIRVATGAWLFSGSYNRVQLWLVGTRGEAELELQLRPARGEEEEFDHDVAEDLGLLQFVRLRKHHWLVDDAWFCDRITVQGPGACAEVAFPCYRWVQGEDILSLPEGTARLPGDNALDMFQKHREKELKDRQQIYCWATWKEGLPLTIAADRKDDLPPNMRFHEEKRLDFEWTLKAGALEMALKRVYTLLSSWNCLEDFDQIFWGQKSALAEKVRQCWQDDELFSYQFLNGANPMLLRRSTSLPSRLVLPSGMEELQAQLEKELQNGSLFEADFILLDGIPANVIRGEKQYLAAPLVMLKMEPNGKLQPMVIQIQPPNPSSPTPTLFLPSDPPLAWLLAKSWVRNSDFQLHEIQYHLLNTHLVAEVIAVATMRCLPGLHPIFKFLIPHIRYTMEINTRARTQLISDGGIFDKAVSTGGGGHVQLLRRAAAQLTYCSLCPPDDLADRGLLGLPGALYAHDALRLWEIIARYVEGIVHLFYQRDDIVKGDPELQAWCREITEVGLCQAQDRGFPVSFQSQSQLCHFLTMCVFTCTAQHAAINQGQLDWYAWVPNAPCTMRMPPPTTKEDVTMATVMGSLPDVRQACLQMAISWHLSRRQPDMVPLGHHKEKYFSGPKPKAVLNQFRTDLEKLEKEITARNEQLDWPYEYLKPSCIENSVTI

Target: Polyunsaturated fatty acid lipoxygenase ALOX12 (Homo sapiens) (UniProt P18054)
Test: Primary qHTS assay for inhibitors of human arachidonate 12S-lipoxygenase (ALOX12): Round 2
Settings: purified 12hLO, xylenol orange hydroperoxide absorbance; activity change, negative = inhibition: at 108 µM (top of the series) unless noted
Procedure, shortened: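 Purified human 12hLO (150 nM final) in 25 mM Hepes, 0.01% Triton X-100, pH 7.0 was preincubated 15 min at room temperature with compound. Then 40 uM arachidonic acid was added, 30 min. Hydroperoxide was read by Fe-XO absorbance ratio 573/405 nm.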
% is set by controls: 0 for no effect and ±100 for the full control effect; potency is the fitted concentration of half-maximal effect.

SMILES | Potency | activity change, negative = inhibition
O=C(Cn1ncc2c3ccccc3n(Cc3ccccc3F)c2c1=O)NC1CCCCCC1 | inactive | –
COc1cccc(N2C(=O)C3CCCN3C2=S)c1 (configuration not stated) | inconclusive: 5.62 µM [inhibitor, partial curve, poor fit] | –
CC1(C(=O)NS(=O)(=O)c2ccc(F)cc2F)CCN1C(=O)Cc1cccc2ccccc12 (configuration not stated) | inconclusive: 50.1 µM [inhibitor, partial curve] | –
CCCNC(=O)c1ccc(NC(=O)CCc2ccccc2)cc1 | inactive | –
C=C(C)Cn1c(SCCCCCC)nc2c1c(=O)[nH]c(=O)n2C | inconclusive: 56.2 µM [inhibitor, single point] | –
CCCCCCCC(=O)Nc1c(C)cccc1CC | inconclusive: 89.1 µM [inhibitor, single point] | –
S=c1[nH]nc(-c2ccc(Br)cc2)n1Cc1ccccc1 | inconclusive: 39.8 µM [inhibitor, partial curve] | –
COc1ccc(C(=O)Nc2nnc(-c3ccc(F)cc3)s2)c(OC)c1 | inactive | –
O=C(NC1CCC1)c1ccc(C#CC2CC2)cn1 | inconclusive: 15.8 µM [inhibitor, full curve] | –
COc1cc(CCC(=O)O)cc2c1OCO2 | inconclusive: 7.08 µM [inhibitor, full curve, poor fit] | –
COc1ccc([N+](=O)[O-])cc1NCc1c(F)cccc1F | – | inconclusive: -33.5% [inhibitor]
CN(C)c1ccc(CNC(=O)C2(C)Cc3c(-c4ccc(N(C)C)cc4)ccnc3O2)cc1 (configuration not stated) | inconclusive: 89.1 µM [inhibitor, single point] | –
O=C(O)CCCNc1ccc(S(=O)(=O)Nc2ccccc2C(=O)O)cc1C(=O)O | inconclusive: 0.199 µM [inhibitor, full curve, poor fit] | –
COC(=O)c1ccc(COc2ccc(/C=N/Nc3cccc(C(=O)O)c3)cc2)cc1 | inconclusive: 79.4 µM [inhibitor, single point] | –
CCCCCCn1c(=O)n2n(c1=O)C[C@]1(OC(=O)NC3CCCC3)CN(S(=O)(=O)c3ccc(C)cc3)C[C@]1(O)C2 | inconclusive: 44.7 µM [inhibitor, partial curve, poor fit] | –
CCSc1oc(-c2ccc(F)cc2)nc1S(=O)(=O)c1ccc(C)cc1 | inconclusive: 50.1 µM [inhibitor, partial curve, poor fit] and active: 39.8 µM | –
NC(N)=N/N=C/c1ccc(Cl)c([N+](=O)[O-])c1 | inconclusive: 31.6 µM [inhibitor, full curve, poor fit] and inconclusive: 8.91 µM [inhibitor, partial curve, poor fit] | –

Sorted by count of non-hydrogen atoms (low to high): part of the list above.
SMILES | Potency | activity change, negative = inhibition
S=c1[nH]nc(-c2ccc(Br)cc2)n1Cc1ccccc1 | inconclusive: 39.8 µM [inhibitor, partial curve] | –
C=C(C)Cn1c(SCCCCCC)nc2c1c(=O)[nH]c(=O)n2C | inconclusive: 56.2 µM [inhibitor, single point] | –
COc1ccc(C(=O)Nc2nnc(-c3ccc(F)cc3)s2)c(OC)c1 | inactive | –
O=C(O)CCCNc1ccc(S(=O)(=O)Nc2ccccc2C(=O)O)cc1C(=O)O | inconclusive: 0.199 µM [inhibitor, full curve, poor fit] | –
O=C(Cn1ncc2c3ccccc3n(Cc3ccccc3F)c2c1=O)NC1CCCCCC1 | inactive | –
